Assay results from article PMC10066299.
No constants are given. Whether binding was seen depends on the method and setting. Some entries that bind do so weakly or less than the wild type. For some assays here: Where a sequence is shown, tags or fusion partners need not be part of it.

Chains of the proteins cited; added tags and fusions are not shown. Lines headed by an entry give the natural chain unless they say otherwise; changes in a name come on top.
UniProt Q96RY7: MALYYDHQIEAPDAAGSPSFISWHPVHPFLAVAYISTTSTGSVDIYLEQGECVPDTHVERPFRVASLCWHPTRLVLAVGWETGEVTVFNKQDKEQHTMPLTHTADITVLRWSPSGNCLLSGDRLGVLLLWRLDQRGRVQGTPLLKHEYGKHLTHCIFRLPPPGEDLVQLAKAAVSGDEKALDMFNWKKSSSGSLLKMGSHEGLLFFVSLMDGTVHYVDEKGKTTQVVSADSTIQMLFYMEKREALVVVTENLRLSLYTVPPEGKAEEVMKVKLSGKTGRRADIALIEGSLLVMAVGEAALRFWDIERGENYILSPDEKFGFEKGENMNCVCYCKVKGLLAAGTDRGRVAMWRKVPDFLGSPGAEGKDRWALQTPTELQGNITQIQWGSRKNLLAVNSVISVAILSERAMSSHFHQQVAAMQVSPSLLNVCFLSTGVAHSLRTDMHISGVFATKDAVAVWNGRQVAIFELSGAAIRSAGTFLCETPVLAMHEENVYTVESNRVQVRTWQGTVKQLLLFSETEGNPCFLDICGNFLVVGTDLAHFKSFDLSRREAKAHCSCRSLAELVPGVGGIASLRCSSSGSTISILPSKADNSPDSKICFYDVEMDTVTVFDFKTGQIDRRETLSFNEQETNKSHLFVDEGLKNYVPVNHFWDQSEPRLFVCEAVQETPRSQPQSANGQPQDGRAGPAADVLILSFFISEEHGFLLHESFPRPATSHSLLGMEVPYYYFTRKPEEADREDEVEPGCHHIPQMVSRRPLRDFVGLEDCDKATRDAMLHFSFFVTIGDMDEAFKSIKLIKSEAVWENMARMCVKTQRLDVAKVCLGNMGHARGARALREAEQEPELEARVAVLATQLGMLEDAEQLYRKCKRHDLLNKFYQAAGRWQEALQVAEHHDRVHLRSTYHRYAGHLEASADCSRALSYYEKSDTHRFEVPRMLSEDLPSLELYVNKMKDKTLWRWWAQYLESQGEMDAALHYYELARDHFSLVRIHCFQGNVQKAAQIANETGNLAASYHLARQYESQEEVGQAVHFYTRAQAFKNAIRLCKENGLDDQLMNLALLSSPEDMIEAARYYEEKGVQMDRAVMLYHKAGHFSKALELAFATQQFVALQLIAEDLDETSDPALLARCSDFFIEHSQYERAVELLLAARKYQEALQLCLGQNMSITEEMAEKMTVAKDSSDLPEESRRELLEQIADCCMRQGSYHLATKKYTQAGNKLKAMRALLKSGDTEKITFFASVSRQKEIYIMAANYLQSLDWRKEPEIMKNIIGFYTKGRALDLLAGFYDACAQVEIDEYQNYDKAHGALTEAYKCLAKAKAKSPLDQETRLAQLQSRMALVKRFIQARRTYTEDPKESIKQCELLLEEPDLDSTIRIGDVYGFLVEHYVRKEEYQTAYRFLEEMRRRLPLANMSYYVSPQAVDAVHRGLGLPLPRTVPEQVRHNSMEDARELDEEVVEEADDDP

T1: IFT144 (WDR19) (human) (UniProt Q8NEZ3)
T1 sequence: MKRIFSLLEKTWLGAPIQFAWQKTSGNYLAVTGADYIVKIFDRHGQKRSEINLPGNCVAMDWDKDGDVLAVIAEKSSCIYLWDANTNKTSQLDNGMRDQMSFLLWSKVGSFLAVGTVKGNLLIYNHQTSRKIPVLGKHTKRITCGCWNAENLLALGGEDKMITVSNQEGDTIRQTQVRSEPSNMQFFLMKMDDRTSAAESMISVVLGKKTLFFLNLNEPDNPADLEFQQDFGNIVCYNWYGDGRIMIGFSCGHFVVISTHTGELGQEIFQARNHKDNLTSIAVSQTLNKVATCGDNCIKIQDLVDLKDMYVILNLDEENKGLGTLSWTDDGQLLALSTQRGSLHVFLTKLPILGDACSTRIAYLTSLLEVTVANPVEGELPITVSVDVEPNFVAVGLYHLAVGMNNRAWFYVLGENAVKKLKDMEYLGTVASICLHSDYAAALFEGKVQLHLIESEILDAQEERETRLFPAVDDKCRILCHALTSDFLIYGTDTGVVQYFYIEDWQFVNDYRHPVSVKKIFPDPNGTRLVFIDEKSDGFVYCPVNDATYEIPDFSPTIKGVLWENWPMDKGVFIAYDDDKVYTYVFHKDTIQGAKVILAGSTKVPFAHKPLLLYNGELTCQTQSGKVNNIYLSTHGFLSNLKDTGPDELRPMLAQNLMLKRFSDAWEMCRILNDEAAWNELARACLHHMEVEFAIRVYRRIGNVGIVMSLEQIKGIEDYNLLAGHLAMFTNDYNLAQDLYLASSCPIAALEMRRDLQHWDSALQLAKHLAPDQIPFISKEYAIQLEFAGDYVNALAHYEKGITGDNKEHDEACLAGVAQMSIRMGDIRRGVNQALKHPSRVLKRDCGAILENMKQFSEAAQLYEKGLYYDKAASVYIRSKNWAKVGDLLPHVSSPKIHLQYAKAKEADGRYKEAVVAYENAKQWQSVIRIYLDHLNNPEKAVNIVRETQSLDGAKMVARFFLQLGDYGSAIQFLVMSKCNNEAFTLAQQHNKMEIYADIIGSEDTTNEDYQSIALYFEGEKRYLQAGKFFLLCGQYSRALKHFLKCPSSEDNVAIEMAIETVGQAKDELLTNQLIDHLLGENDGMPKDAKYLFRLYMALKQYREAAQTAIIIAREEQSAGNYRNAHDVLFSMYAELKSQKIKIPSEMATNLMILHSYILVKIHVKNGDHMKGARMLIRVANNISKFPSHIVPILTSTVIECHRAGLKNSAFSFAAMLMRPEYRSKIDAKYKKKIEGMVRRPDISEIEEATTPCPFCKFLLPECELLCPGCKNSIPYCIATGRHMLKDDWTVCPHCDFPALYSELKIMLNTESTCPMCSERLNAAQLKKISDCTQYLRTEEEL

T2: IFT122 (human) (UniProt Q9HBG6)
T2 sequence: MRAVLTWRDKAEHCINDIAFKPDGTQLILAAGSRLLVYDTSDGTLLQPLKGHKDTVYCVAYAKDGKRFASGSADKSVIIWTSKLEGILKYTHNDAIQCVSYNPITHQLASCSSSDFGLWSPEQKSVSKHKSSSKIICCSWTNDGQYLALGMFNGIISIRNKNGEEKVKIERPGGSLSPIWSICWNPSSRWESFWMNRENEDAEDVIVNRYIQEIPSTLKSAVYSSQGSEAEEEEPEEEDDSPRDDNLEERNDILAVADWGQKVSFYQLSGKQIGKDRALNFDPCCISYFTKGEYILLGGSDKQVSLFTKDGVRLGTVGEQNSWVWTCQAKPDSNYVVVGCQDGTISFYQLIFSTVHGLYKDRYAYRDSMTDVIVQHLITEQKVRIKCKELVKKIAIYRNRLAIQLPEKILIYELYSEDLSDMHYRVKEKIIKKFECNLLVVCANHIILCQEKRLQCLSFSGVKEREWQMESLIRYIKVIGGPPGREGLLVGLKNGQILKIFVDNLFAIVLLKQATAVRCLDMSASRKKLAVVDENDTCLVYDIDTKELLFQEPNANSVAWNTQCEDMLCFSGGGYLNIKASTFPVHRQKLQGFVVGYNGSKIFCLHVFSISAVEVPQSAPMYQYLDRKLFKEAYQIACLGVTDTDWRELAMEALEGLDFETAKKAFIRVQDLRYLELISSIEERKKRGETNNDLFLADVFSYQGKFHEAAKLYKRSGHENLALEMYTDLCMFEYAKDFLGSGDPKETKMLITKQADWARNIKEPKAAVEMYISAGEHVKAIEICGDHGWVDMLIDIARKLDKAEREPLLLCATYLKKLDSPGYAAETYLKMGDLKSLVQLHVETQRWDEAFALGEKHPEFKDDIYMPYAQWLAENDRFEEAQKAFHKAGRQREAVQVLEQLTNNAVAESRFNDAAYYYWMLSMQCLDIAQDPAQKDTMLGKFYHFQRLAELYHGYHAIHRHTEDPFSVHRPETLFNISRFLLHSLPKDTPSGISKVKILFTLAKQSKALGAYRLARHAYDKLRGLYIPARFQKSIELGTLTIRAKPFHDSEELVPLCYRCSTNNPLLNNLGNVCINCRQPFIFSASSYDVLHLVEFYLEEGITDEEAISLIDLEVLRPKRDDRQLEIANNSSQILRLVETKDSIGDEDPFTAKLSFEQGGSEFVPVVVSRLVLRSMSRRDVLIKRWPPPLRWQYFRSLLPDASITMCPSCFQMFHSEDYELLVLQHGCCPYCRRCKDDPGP


Tests used:
[1] = target: T1, IFT144 (WDR19) (human); test: cryo-EM structure; IFT-A complex co-expressed in HEK293F and co-purified; composite map from the IFT-A and IFT-A (-IFT139) datasets; 20 mM Tris-HCl pH 8.0, 200 mM NaCl, 2 mM DTT, 2 mM FFC-8 added; both purified
[2] = target: T2, IFT122 (human); test: as above
[3] = target: T2, IFT122 (human); test: cryo-EM structure; IFT-A (without IFT139)-TULP3 complex co-expressed in HEK293F and co-purified; Krios dataset, focused refinement of the TULP3-binding region; both purified
[4] = target: IFT140 (human) (UniProt Q96RY7); test: as above
[5] = target: T2, IFT122 (human); test: cryo-EM structure; IFT-A-TULP3 complex with IFT139 (constructs 1-3, 5, 6), co-expressed and co-purified; 200 kV Arctica dataset, low-resolution map; both purified
[6] = target: IFT140 (human) (UniProt Q96RY7); test: as above

| binding [1] | binding [2] | Molecule | other results |
| --- | --- | --- | --- |
| binds | binds | IFT140 (from UniProt Q96RY7-1 1-1462) |  |
|  |  | TULP3 with N-terminal mCherry tag (protein, UniProt O75386-1 1-442) MEASRCRLSPSGDSVFHEEMMKMRQAKLDYQRLLLEKRQRKKRLEPFMVQPNPEARLRRAKPRASDEQTPLVNCHTPHSNVILHGIDGPAAVLKPDEVHAPSVSSSVVEEDAENTVDTASKPGLQERLQKHDISESVNFDEETDGISQSACLERPNSASSQNSTDTGTSGSATAAQPADNLLGDIDDLEDFVYSPAPQGVTVRCRIIRDKRGMDRGLFPTYYMYLEKEENQKIFLLAARKRKKSKTANYLISIDPVDLSREGESYVGKLRSNLMGTKFTVYDRGICPMKGRGLVGAAHTRQELAAISYETNVLGFKGPRKMSVIIPGMTLNHKQIPYQPQNNHDSLLSRWQNRTMENLVELHNKAPVWNSDTQSYVLNFRGRVTQASVKNFQIVHKNDPDYIVMQFGRVADDVFTLDYNYPLCAVQAFGIGLSSFDSKLACE | binding [3]: binds; binding [4]: binds; binding [5]: binds; binding [6]: binds |
| binds |  | IFT122 (protein, UniProt Q9HBG6 1-1241) MRAVLTWRDKAEHCINDIAFKPDGTQLILAAGSRLLVYDTSDGTLLQPLKGHKDTVYCVAYAKDGKRFASGSADKSVIIWTSKLEGILKYTHNDAIQCVSYNPITHQLASCSSSDFGLWSPEQKSVSKHKSSSKIICCSWTNDGQYLALGMFNGIISIRNKNGEEKVKIERPGGSLSPIWSICWNPSSRWESFWMNRENEDAEDVIVNRYIQEIPSTLKSAVYSSQGSEAEEEEPEEEDDSPRDDNLEERNDILAVADWGQKVSFYQLSGKQIGKDRALNFDPCCISYFTKGEYILLGGSDKQVSLFTKDGVRLGTVGEQNSWVWTCQAKPDSNYVVVGCQDGTISFYQLIFSTVHGLYKDRYAYRDSMTDVIVQHLITEQKVRIKCKELVKKIAIYRNRLAIQLPEKILIYELYSEDLSDMHYRVKEKIIKKFECNLLVVCANHIILCQEKRLQCLSFSGVKEREWQMESLIRYIKVIGGPPGREGLLVGLKNGQILKIFVDNLFAIVLLKQATAVRCLDMSASRKKLAVVDENDTCLVYDIDTKELLFQEPNANSVAWNTQCEDMLCFSGGGYLNIKASTFPVHRQKLQGFVVGYNGSKIFCLHVFSISAVEVPQSAPMYQYLDRKLFKEAYQIACLGVTDTDWRELAMEALEGLDFETAKKAFIRVQDLRYLELISSIEERKKRGETNNDLFLADVFSYQGKFHEAAKLYKRSGHENLALEMYTDLCMFEYAKDFLGSGDPKETKMLITKQADWARNIKEPKAAVEMYISAGEHVKAIEICGDHGWVDMLIDIARKLDKAEREPLLLCATYLKKLDSPGYAAETYLKMGDLKSLVQLHVETQRWDEAFALGEKHPEFKDDIYMPYAQWLAENDRFEEAQKAFHKAGRQREAVQVLEQLTNNAVAESRFNDAAYYYWMLSMQCLDIAQDPAQKDTMLGKFYHFQRLAELYHGYHAIHRHTEDPFSVHRPETLFNISRFLLHSLPKDTPSGISKVKILFTLAKQSKALGAYRLARHAYDKLRGLYIPARFQKSIELGTLTIRAKPFHDSEELVPLCYRCSTNNPLLNNLGNVCINCRQPFIFSASSYDVLHLVEFYLEEGITDEEAISLIDLEVLRPKRDDRQLEIANNSSQILRLVETKDSIGDEDPFTAKLSFEQGGSEFVPVVVSRLVLRSMSRRDVLIKRWPPPLRWQYFRSLLPDASITMCPSCFQMFHSEDYELLVLQHGCCPYCRRCKDDPGP |  |
|  | binds | IFT139 (TTC21B/THM1) with N-terminal mCherry tag (protein, UniProt Q7Z4L5 1-1316) MDSQELKTLINYYCQERYFHHVLLVASEGIKRYGSDPVFRFYHAYGTLMEGKTQEALREFEAIKNKQDVSLCSLLALIYAHKMSPNPDREAILESDARVKEQRKGAGEKALYHAGLFLWHIGRHDKAREYIDRMIKISDGSKQGHVLKAWLDITRGKEPYTKKALKYFEEGLQDGNDTFALLGKAQCLEMRQNYSGALETVNQIIVNFPSFLPAFVKKMKLQLALQDWDQTVETAQRLLLQDSQNVEALRMQALYYVCREGDIEKASTKLENLGNTLDAMEPQNAQLFYNITLAFSRTCGRSQLILQKIQTLLERAFSLNPQQSEFATELGYQMILQGRVKEALKWYKTAMTLDETSVSALVGFIQCQLIEGQLQDADQQLEFLNEIQQSIGKSAELIYLHAVLAMKKNKRQEEVINLLNDVLDTHFSQLEGLPLGIQYFEKLNPDFLLEIVMEYLSFCPMQPASPGQPLCPLLRRCISVLETVVRTVPGLLQTVFLIAKVKYLSGDIEAAFNNLQHCLEHNPSYADAHLLLAQVYLSQEKVKLCSQSLELCLSYDFKVRDYPLYHLIKAQSQKKMGEIADAIKTLHMAMSLPGMKRIGASTKSKDRKTEVDTSHRLSIFLELIDVHRLNGEQHEATKVLQDAIHEFSGTSEEVRVTIANADLALAQGDIERALSILQNVTAEQPYFIEAREKMADIYLKHRKDKMLYITCFREIAERMANPRSFLLLGDAYMNILEPEEAIVAYEQALNQNPKDGTLASKMGKALIKTHNYSMAITYYEAALKTGQKNYLCYDLAELLLKLKWYDKAEKVLQHALAHEPVNELSALMEDGRCQVLLAKVYSKMEKLGDAITALQQARELQARVLKRVQMEQPDAVPAQKHLAAEICAEIAKHSVAQRDYEKAIKFYREALVHCETDNKIMLELARLYLAQDDPDSCLRQCALLLQSDQDNEAATMMMADLMFRKQDYEQAVFHLQQLLERKPDNYMTLSRLIDLLRRCGKLEDVPRFFSMAEKRNSRAKLEPGFQYCKGLYLWYTGEPNDALRHFNKARKDRDWGQNALYNMIEICLNPDNETVGGEVFENLDGDLGNSTEKQESVQLAVRTAEKLLKELKPQTVQGHVQLRIMENYCLMATKQKSNVEQALNTFTEIAASEKEHIPALLGMATAYMILKQTPRARNQLKRIAKMNWNAIDAEEFEKSWLLLADIYIQSAKYDMAEDLLKRCLRHNRSCCKAYEYMGYIMEKEQAYTDAALNYEMAWKYSNRTNPAVGYKLAFNYLKAKRYVDSIDICHQVLEAHPTYPKIRKDILDKARASLRP |  |
